Data: paper PMC11237401
No constants are given. Whether binding was seen depends on the method and setting. For some assays here: Binding calls can cover weak binding; strength is not graded here.

Columns and labels:
Assay in all cases: two-hybrid; bacterial adenylate cyclase-based two-hybrid (BACTH) in E. coli BTH101; bait on pKT25, prey on pUT18; grown at 30°C with 0.5 mM IPTG; β-galactosidase activity by Miller assay
[1] = biological target: Gp104
[2] = biological target: Gp11 (S. aureus phage ΦNM1)
[3] = biological target: Gp11^A38E (S. aureus phage ΦNM1)
[4] = biological target: Gp11^G36R (S. aureus phage ΦNM1)
[5] = biological target: Gp11^S33L (S. aureus phage ΦNM1)

B1: DnaI (protein, UniProt Q3ZUA6 1-306)
chain: MKQFKSIINTSQDFEKRIEKIKKEVINDPDVKQFLEAHRAELTNAMIDEDLNVLQEYKDQQKHYDGHKFADCPNFVKGHVPELYVDNNRIKIRYLQCPCKIKYDEERFEAELITSHHMQRDTLNAKLKDIYMNHRDRLDVAMAADDICTAITNGEQVKGLYLYGPFGTGKSFILGAIANQLKSKKVRSTIIYLPEFIRTLKGGFKDGSFEKKLHRVREANILMLDDIGAEEVTPWVRDEVIGPLLHYRMVHELPTFFSSNFDYSELEHHLAMTRDGEEKTKAARIIERVKSLSTPYFLSGENFRNN
[1]
  binding: binds

B2: MurG (enzyme, UniProt Q2FYL5 1-356)
chain: MTKIAFTGGGTVGHVSVNLSLIPTALSQGYEALYIGSKNGIEREMIESQLPEIKYYPISSGKLRRYISLENAKDVFKVLKGILDARKVLKKEKPDLLFSKGGFVSVPVVIAAKSLNIPTIIHESDLTPGLANKIALKFAKKIYTTFEETLNYLPKEKADFIGATIREDLKNGNAHNGYQLTGFNENKKVLLVMGGSLGSKKLNSIIRENLDALLQQYQVIHLTGKGLKDAQVKKSGYIQYEFVKEDLTDLLAITDTVISRAGSNAIYEFLTLRIPMLLVPLGLDQSRGDQIDNANHFADKGYAKAIDEEQLTAQILLQELNEMEQERTRIINNMKSYEQSYTKEALFDKMIKDALN
[2]
  binding: binds
[3]
  binding: no binding
[4]
  binding: no binding
[5]
  binding: binds
